Data reported in publication PMC9696974 (Pharmaceutics, 2022).

Assays:
Format in all cases: cell-based, human
[1] = tested on: lysosomes (LAMP1) in A549 cells; assay: Colocalisation with LAMP1 (lysosomes), confocal microscopy; settings: A549, 10 µM, 90 min at 37 °C, fixed with PFA
[2] = tested on: Golgi apparatus (GM130) in A549 cells; assay: Colocalisation with GM130 (Golgi), confocal microscopy; settings: A549, 10 µM, 90 min at 37 °C, fixed with PFA
[3] = tested on: mitochondria in A549 cells; assay: Colocalisation with MitoTracker Deep Red (mitochondria); settings: A549, 10 µM, 90 min at 37 °C, live cells

With `c1cc2ccc3cc(-c4ccncc4)cc4ccc(c1)c2c34` [compound 1] the “Pearson's coefficient, colocalisation with lysosomes (LAMP1)” value (shortened to “Pearson's coefficient … (LAMP1)”) [1] was 0.468, the “Pearson's coefficient, colocalisation with Golgi (GM130)” value (shortened to “Pearson's coefficient … (GM130)”) [2] was 0.294 and the “Pearson's coefficient, colocalisation with mitochondria (MitoTracker Deep Red)” value (shortened to “Pearson's coefficient … (MitoTracker Deep Red)”) [3] was 0.356.
For `C[n+]1ccc(-c2cc3ccc4cccc5ccc(c2)c3c45)cc1` [1M, 2-para-N-methylpyridinium pyrene], the “Pearson's coefficient … (LAMP1)” value [1] was 0.46, the “Pearson's coefficient … (GM130)” value [2] was 0.27 and the “Pearson's coefficient … (MitoTracker Deep Red)” value [3] was 0.628.
For `C[n+]1ccc(-c2cc3ccc4cc(-c5cc[n+](C)cc5)cc5ccc(c2)c3c45)cc1` [2M], the “Pearson's coefficient … (LAMP1)” value [1] was 0.404, the “Pearson's coefficient … (GM130)” value [2] was 0.165 and the “Pearson's coefficient … (MitoTracker Deep Red)” value [3] was 0.206.
